Measurements reported in publication PMC7563477, “N-Terminal Segment of TvCyP2 Cyclophilin from Trichomonas vaginalis Is Involved in Self-Association, Membrane Interaction, and Subcellular Localization” (Biomolecules, 2020).
These are yes or no findings as the source states them, for the method shown. In cells and extracts the contact can be indirect. Some results given as binding are weak or reduced against the parent protein; the word gives no strength.

By UniProt entry, the sequences of proteins in these tests, tags left out.
UniProt A2DLL4: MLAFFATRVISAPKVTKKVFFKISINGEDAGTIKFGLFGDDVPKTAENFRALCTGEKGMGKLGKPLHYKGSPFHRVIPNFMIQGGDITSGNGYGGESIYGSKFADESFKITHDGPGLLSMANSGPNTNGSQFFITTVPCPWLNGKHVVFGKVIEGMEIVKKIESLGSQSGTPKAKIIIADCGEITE
UniProt A2DT06: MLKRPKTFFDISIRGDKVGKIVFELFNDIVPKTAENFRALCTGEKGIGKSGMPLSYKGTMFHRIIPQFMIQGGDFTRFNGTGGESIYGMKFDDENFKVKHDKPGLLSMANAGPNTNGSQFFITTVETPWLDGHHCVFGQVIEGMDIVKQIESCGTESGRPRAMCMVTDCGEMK

Molecular target: HA-TvCyP2 (hemagglutinin-tagged TvCyP2 overexpressed in T. vaginalis) (Trichomonas vaginalis) (UniProt A2DLL4)
Assay: co-IP; lysates of transgenic T. vaginalis T1 cells (1% Triton X-100 in PBS, diluted 5-fold) on anti-HA agarose beads, 4 °C overnight; washed with PBS with 0.1% Triton X-100; Western blot; non-transgenic parasites as control

binding: binds
Substance: TvCyP1, endogenous in T. vaginalis (from UniProt A2DT06 1-173) (enzyme)
